According to article PMC7554866:
Results are given in words; binding and its absence hold for the method and conditions named. In cells and extracts the contact can be indirect. Some results given as binding are weak or reduced against the parent protein; the word gives no strength.

Sequences of proteins named here, by UniProt entry; tags and fusion partners are left off.
UniProt Q04207: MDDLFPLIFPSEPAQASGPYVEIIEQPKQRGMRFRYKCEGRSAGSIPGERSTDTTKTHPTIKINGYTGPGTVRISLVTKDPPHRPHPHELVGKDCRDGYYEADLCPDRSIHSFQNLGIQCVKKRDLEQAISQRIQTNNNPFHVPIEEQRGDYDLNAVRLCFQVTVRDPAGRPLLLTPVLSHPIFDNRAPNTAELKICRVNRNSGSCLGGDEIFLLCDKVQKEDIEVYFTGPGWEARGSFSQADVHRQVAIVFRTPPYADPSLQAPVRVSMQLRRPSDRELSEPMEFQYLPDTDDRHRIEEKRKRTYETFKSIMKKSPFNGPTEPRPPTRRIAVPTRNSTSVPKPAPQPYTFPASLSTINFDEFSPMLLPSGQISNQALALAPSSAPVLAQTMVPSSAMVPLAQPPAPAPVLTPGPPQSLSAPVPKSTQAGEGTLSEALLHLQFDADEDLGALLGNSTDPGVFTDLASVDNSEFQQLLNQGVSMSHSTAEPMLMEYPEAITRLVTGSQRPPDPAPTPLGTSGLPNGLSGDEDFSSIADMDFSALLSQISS
UniProt P42227: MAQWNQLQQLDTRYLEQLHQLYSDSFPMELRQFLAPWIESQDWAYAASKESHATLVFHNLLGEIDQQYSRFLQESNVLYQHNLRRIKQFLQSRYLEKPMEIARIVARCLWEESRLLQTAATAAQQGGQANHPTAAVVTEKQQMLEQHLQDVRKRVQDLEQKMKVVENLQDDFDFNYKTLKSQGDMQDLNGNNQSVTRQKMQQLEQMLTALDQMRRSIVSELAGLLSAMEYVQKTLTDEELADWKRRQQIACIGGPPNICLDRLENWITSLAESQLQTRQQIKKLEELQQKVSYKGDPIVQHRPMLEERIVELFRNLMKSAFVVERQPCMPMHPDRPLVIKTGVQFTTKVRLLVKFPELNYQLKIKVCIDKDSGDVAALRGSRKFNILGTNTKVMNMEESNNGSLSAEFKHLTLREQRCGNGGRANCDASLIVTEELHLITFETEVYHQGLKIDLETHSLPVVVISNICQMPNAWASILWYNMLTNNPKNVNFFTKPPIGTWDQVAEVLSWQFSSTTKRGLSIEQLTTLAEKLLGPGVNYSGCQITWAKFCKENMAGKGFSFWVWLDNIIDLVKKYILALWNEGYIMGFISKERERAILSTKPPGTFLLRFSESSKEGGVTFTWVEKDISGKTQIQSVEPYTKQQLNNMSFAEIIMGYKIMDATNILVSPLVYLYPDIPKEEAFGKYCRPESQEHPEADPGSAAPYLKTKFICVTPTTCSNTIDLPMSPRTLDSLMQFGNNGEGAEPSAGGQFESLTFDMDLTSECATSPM

What was measured:
[1] = molecular target: p65 subunit of NF-κB (mouse (endogenous in liver)) (UniProt Q04207); experiment: co-IP; immunoprecipitation with anti-p65 (#8242) from liver extracts of WT and PGC-1α KO mice with cerulein-induced pancreatitis, and of sham or cerulein-treated lean and obese mice; Western blot for p-STAT3 (Tyr705)
[2] = molecular target: T1, PPARγ co-activator 1α (PGC-1α) (mouse (endogenous in liver)) (UniProt O70343); experiment: co-IP; immunoprecipitation with anti-PGC-1α (sc-518025) from liver extracts of sham WT mice and WT mice 1 h after cerulein-induced acute pancreatitis; Western blot for p65
T1 sequence: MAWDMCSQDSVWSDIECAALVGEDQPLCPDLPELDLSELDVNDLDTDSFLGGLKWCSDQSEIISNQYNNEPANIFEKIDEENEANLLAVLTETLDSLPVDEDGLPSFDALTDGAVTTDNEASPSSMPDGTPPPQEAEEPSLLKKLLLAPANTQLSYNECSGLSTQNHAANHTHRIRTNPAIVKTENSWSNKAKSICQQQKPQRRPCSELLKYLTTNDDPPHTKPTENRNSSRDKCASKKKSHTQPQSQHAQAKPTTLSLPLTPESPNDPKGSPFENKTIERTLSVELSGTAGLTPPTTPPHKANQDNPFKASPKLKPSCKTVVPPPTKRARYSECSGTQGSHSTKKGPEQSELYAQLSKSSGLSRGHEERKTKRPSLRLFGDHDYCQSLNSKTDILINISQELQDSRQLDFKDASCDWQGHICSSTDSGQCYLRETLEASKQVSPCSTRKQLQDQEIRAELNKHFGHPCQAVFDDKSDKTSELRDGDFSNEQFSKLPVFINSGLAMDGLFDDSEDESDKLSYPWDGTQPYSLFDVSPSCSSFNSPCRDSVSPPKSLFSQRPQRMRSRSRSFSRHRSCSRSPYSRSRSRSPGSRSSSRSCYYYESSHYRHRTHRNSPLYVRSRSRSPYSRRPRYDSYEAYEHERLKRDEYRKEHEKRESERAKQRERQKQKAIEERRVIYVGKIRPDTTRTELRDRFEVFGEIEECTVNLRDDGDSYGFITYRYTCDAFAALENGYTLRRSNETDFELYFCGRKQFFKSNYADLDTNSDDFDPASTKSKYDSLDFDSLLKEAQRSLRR

| binding [1] | binding [2] | Substance |
| --- | --- | --- |
| binds |  | phospho-STAT3 (Tyr705) (from UniProt P42227 1-770) |
|  | binds | p65 subunit of NF-κB (from UniProt Q04207 1-549) |
